In the data set the target is GAPC2 (leaf extract, MALDI-TOF) (Arabidopsis thaliana) (UniProt Q9FX54). The data set can be described thus: pull-down, MALDI-TOF. The note with it: protein in an extract.

Protein sequences, listed by entry. Tags and fused reporters are not part of them. Lines headed by an entry give the natural chain unless they say otherwise; changes in a name come on top.
UniProt Q9FX54: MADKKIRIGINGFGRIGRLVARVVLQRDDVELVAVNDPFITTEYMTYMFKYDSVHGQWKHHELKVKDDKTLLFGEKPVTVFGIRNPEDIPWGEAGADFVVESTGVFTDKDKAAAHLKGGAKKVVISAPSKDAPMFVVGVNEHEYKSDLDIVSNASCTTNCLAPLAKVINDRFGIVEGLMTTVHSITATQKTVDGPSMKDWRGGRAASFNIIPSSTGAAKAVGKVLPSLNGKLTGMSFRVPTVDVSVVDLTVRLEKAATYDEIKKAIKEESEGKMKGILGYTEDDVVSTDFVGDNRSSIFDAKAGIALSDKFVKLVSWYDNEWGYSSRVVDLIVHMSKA

Construct, isoform or probe ends are uncertain for at least one entry. At least one result comes from cells or an extract, where the contact may be indirect.

Regarding AUAUAUUCUCCGGAGAA [M1-RNA (consensus)], the binding result is “binds”.
